Measurements from PubChem BioAssay AID290 (DTP/NCI, 2004).
The list does not hold the whole screen: it gathers some chemical classes. Not every dose and run of a compound is shown. T/C is the treated group as % of the vehicle group. Some T/C values are marked as having no survivor count here; that says nothing about deaths at the dose. Schedules are NCI's codes, taken here to give the interval after Q, in days (D) or hours (H), and the number of doses after X.

Test system: mice, P1798 lymphosarcoma sc, survival or tumor weight T/C
Assay: NCI In Vivo Anticancer Drug Screen. Data for tumor model P1798 Lymphosarcoma (subcutaneous) in unknown mice
Conditions: T/C endpoint: mean tumor weight, schedule: Q01DX010 (ip), evaluation day not shown, higher T/C = larger tumour
Method: The antitumor activity of compounds was measured in mice bearing transplantable tumors. Survival or tumor size were measured and the results are expressed as the measurement made in the treated group (T) divided by the measurement made in the vehicle treated control group (C). The tumor model used in this assay is P1798 Lymphosarcoma (subcutaneous) in unknown mice

[1] = dose: 5.0 mg/kg/injection, vehicle: carboxymethylcellulose (CMC)
[2] = dose: 10.0 mg/kg/injection, vehicle: carboxymethylcellulose (CMC)
[3] = dose: 1.25 mg/kg/injection, vehicle: carboxymethylcellulose (CMC)
[4] = dose: 2.5 mg/kg/injection, vehicle: carboxymethylcellulose (CMC)

SMILES | T/C [1] | T/C [2] | T/C [3] | T/C [4] | also measured
O=C(O)CN(CCCl)CCCl | – | – | – | – | T/C (dose: 1.0 mg/kg/injection, vehicle: saline): 81 % of control [survivor count not shown]; T/C (dose: 2.0 mg/kg/injection, vehicle: saline): 72 % of control [survivor count not shown]
ClCCNCCCl | – | – | – | – | T/C (dose: 3.1 mg/kg/injection, vehicle: carboxymethylcellulose (CMC)): 85 % of control [survivor count not shown]; T/C (dose: 6.25 mg/kg/injection, vehicle: carboxymethylcellulose (CMC)): 80 % of control [survivor count not shown]; T/C (dose: 12.5 mg/kg/injection, vehicle: carboxymethylcellulose (CMC)): 59 % of control [survivor count not shown]; T/C (dose: 25.0 mg/kg/injection, vehicle: carboxymethylcellulose (CMC)): 39 % of control [survivor count not shown]
ClCCN(CCCl)Cc1nc2ccccc2[nH]1 | 28 % of control [survivor count not shown] | 14 % of control [survivor count not shown] | – | – | –
NC(Cc1cccc(N(CCCl)CCCl)c1)C(=O)O (stereo not given) | – | – | 38 % of control [survivor count not shown] | 3 % of control [survivor count not shown] | T/C (dose: 0.63 mg/kg/injection, vehicle: carboxymethylcellulose (CMC)): 58 % of control [survivor count not shown]
CC(C(=O)O)N(CCCl)CCCl (stereo not given) | 99 % of control [survivor count not shown] | 47 % of control [survivor count not shown] | 97 % of control [survivor count not shown] | 90 % of control [survivor count not shown] | –
